According to PubChem BioAssay AID504847 (National Center for Advancing Translational Sciences (NCATS), 2011):
Where “and” joins values, the source holds several entries; their conditions need not be identical. Identical values can stand only once. In all, about 400,000 compounds went through this assay and about 3,700 (0.93%) were called active. Inconclusive results, whose numbers are uncertain, are shown with a selection of clear calls. Calls come from the whole dose curve; as a rule, active = well fitted inhibition curve with a large enough effect; inconclusive = small, poorly fitted or top-dose-only effect, or another doubt; inactive = no such curve, though single readings can be large or run the other way. Potencies beside an inconclusive call are fits to weak or partial responses and may not hold up. More than one record can exist for a structure, and the calls need not agree.

Sequences of proteins named here, by UniProt entry; tags and fusion partners are left off. A change or cut given only in a name is not applied to a line headed by its entry.
UniProt P11473: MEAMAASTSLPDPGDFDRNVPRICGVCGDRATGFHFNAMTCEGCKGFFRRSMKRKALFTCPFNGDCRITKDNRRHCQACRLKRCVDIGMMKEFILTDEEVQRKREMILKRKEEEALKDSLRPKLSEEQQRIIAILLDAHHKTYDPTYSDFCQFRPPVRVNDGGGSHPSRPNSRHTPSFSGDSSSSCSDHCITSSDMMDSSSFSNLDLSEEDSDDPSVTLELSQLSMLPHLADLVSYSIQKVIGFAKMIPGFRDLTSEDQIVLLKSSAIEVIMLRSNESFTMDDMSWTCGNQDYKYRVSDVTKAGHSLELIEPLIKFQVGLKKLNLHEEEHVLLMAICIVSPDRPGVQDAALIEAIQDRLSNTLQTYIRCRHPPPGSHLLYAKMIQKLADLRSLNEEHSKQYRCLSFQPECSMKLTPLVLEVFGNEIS

Each molecule was assayed against Vitamin D3 receptor (Homo sapiens) (UniProt P11473) (assay: Inhibitors of the vitamin D receptor (VDR): qHTS). Details: VDR-SRC2-3 peptide fluorescence polarization, 2 h; max response, negative = inhibition: hits give low values.
Procedure, shortened: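 The screen uses fluorescence polarization to detect compounds that interfere with recruitment of the SRC2-3 coactivator peptide to VDR; plates are read after 2 h at room temperature.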
% is set by controls: 0 for no effect and ±100 for the full control effect; potency is the fitted concentration of half-maximal effect.

Max response, negative = inhibition, inactive:
CCOn1c(=O)c(-c2ccc(F)cc2)[n+]([O-])c2ccccc21 -0.117%, CC(C)CN1C(=O)CC(Sc2ccccc2C(=O)O)C1=O (configuration not stated) 4.32%, c1ccc(-c2cnc(SCCN3CCOCC3)n2CC2CCCO2)cc1 (configuration not stated) -10.1%, CNC(=O)c1ccsc1NC(=O)c1coc2ccccc2c1=O -4.89%, CN(C(=O)c1cccc(NC(=O)Cc2cccc(NC(=O)C3CCN(C(=O)c4ccccc4)CC3)c2)c1)C1CC1 -12%, CCOc1ccccc1NC(=O)Cn1c(=O)n(CCCC(=O)NCCOC)c(=O)c2cc(OC)c(OC)cc21 -11.9%, COC(=O)c1ccc2c(=O)n(CCCCCC(=O)NCc3ccccc3)c(=O)[nH]c2c1 5.36% and 11.6%, C#CC[N+]1(CC#Cc2ccccc2)CCCC1 -8.78%, c1ccc(Cn2cc(CN3CCCCO3)c(-c3ccc4c(c3)OCO4)n2)cc1 -8.12%, N=c1c(C(=O)NC2CCCC2)cc2c(=O)n3ccccc3nc2n1CC1CCCO1 (configuration not stated) -1.16%, CC1(C)Cc2ccccc2C(Nn2cnnc2)=N1 -11.3%, Cc1csc(C(C#N)C(=O)c2ccncc2)n1 (configuration not stated) 4.62%, CCOC(=O)c1ccc(N2C(=O)c3cccc4c(C(=O)O)ccc(c34)C2=O)cc1 4%, Cc1ccc(/C=N/NC(=O)c2nnn(-c3nonc3N)c2CSc2ccccc2)o1 3.04%, COc1cccc(C(=O)Nc2ccc(-c3nc4ccccc4s3)cc2Cl)c1 -1.19%, Cc1ccc(NC(=S)N(Cc2ccccc2)C(C)C)cc1 -0.113%, Fc1ccc(-n2c(-c3ccco3)n[nH]c2=S)cc1 2.61%, CCN(CC)c1ccc(NC(=O)CSc2nc3nc(C)cc(C)c3c(=O)[nH]2)cc1 -13.7%, COc1ccc(NC(=O)N(C)C[C@H]2Oc3c(NC(=O)Nc4ccc(C(F)(F)F)cc4)cccc3C(=O)N([C@H](C)CO)C[C@@H]2C)cc1 -3.49%, COc1ccc(C2=NN(C(=O)c3cccs3)C(O)(C(F)(F)F)C2)cc1 (configuration not stated) -2.92%, COc1cc(OC)c2c(OC)c(-c3ccc4c(c3)OCO4)c(=O)oc2c1 4.65%, CCc1ccccc1N(C)C(=O)c1cnc(N2CCOCC2)c2ccccc12 2.95%

Potency, active:
CCOC(=O)C1(C)NC(c2cccs2)C2C(=O)N(c3ccc(OC)cc3)C(=O)C21 (configuration not stated) 31.6 µM, CC(CCC(C)C(C)(C)C)[C@@H]1CC[C@H]2C3C[C@H](OS(O)(=S)=S)[C@H]4C[C@H](OS(O)(=S)=S)[C@@H](OS(O)(=S)=S)C[C@]4(C)[C@H]3CC[C@]12C (some centres not stated) (tested in a mixture with another compound) 22.4 µM, O=C(O)CN1C(=O)/C(=C\c2cccc(OCc3ccccc3)c2)SC1=S 56.2 µM, C=CCN1CCN(c2nc3ccccc3nc2C#N)CC1 35.5 µM, O=Cc1s/c(=N\S(=O)(=O)c2ccccc2)n(CCCCl)c1Cl 22.4 µM, CC(=O)Nc1sc(N/N=C\c2cccc(Cl)c2)nc1-c1cccs1 7.08 µM, NC(CSS(=O)(=O)O)=NCCC12CC3CC(CC(O)(C3)C1)C2 39.8 µM, COc1cc(/C=C2\CCC/C(=C\c3ccc(O)c(OC)c3)C2=O)ccc1O 25.1 µM, N#Cc1ccc(N=c2ssnc2Cl)cc1 14.1 µM

Potency, inconclusive:
O=C(CSC1=NCCS1)Nc1nc2c(s1)CCCC2 89.1 µM [inhibitor, single point], CC(=O)N1CCc2c(sc(NC(=O)CS(=O)(=O)c3ccc(F)cc3)c2C(N)=O)C1 89.1 µM [inhibitor, single point], O=C(Nc1nnc(SCc2ccccc2Cl)s1)c1cccc([N+](=O)[O-])c1 50.1 µM [inhibitor, partial curve], COc1cccc(-n2nnnc2SCC(=O)Nc2ccc(C(C)=O)cc2)c1 17.8 µM [inhibitor, single point], CCN(CC)CCCNc1ccc2ncn3c4ccc(O)cc4c(=O)c1c23 79.4 µM [inhibitor, single point], O=C(/C=C/c1ccco1)Nc1cccc(C(=O)Nc2ccccc2C(=O)O)c1 31.6 µM [inhibitor, single point], COc1ccc(C2=CC3=C(Br)C(=O)C(C)(O)C(=O)C3=CO2)cc1 (configuration not stated) 63.1 µM [inhibitor, partial curve, poor fit], CCOC(=O)c1c(NC(=O)/C=C/c2ccc(OC)c(OC)c2)sc(C(C)=O)c1C 100 µM [inhibitor, partial curve, poor fit], CCOC(=O)CCN(C(=S)Nc1ccccc1)C1CCCCC1 6.31 µM [inhibitor, full curve], COc1cccc(C(=O)/C=C/c2ccc(N3CCCCC3)c([N+](=O)[O-])c2)c1 10 µM [inhibitor, full curve, poor fit], COc1ccc(-c2cccc3c2NC(=O)C3=O)cc1OC 63.1 µM [inhibitor, partial curve, poor fit], C/C=C\C=C/C(=O)Nc1cccc(C2=NOC3(C2)C[C@@H](C(N)=O)N(C(=O)CCCCC)C3)c1 (some centres not stated) 70.8 µM [inhibitor, partial curve], O=C(CCCN1C(=O)/C(=C\c2ccccc2)SC1=S)Nc1cccc(C(=O)O)c1 50.1 µM [inhibitor, partial curve], Nc1cccc2c1C(=O)N(C(=O)c1ccc(Cl)c(S(=O)(=O)N3CCCCCC3)c1)C2=O 44.7 µM [inhibitor, partial curve, poor fit], Fc1ccc(NC(=S)N2CCSC2c2cccs2)cc1 (configuration not stated) 70.8 µM [inhibitor, partial curve], CC1Oc2ccccc2N(CC(=O)c2cccc(Cl)c2)C1=O (configuration not stated) 11.2 µM [inhibitor, partial curve], O=[N+]([O-])c1ccc(N=Cc2c(O)ccc3ccccc23)cc1 39.8 µM [inhibitor, single point], CC(=O)NC1C(=O)N(CCN2CCOCC2)c2ccc(Br)cc21 (configuration not stated) 89.1 µM [inhibitor, single point], COc1ccc(C(C)=O)cc1Cn1cnc2c(cnn2C)c1=O 28.2 µM [inhibitor, partial curve], Cc1cccc(N(Cc2cc3ccc(C)cc3[nH]c2=O)C(=O)c2ccco2)c1 89.1 µM [inhibitor, single point], CC(=O)Oc1ccc2oc(-c3ccccc3)c(C(N)=O)c2c1 25.1 µM [inhibitor, partial curve], CCCCCCC(=O)N(O)C1CC(=O)N(c2ccc(Br)cc2)C1=O (configuration not stated) 25.1 µM [inhibitor, single point], COc1ccccc1/C=C1/C(=O)N(c2ccc([N+](=O)[O-])cc2)N=C1C 31.6 µM [inhibitor, partial curve, poor fit], CCC(C)C(NC(=O)OCc1ccccc1)C(=O)OCN1C(=O)c2ccccc2C1=O (configuration not stated) 3.16 µM [inhibitor, full curve, poor fit], O=c1c(Cl)c(Cl)cnn1Cc1ccccc1Cl 89.1 µM [inhibitor, single point], CCCCCC/C=C\CCCCCCCc1cccc(O)c1C(=O)O 31.6 µM [inhibitor, full curve], COc1ccccc1NC(=O)CCNS(=O)(=O)c1ccc2[nH]c(=O)oc2c1 14.1 µM [inhibitor, partial curve, poor fit], CC1(C)COC(/C=C/c2ccc([N+](=O)[O-])cc2)=N1 50.1 µM [inhibitor, partial curve, poor fit], CC(=O)NNC(=S)NC(=O)c1cccc([N+](=O)[O-])c1 79.4 µM [inhibitor, single point], O=C(CCl)N1CCCC1c1ccc2c(c1)OCCO2 (configuration not stated) 89.1 µM [inhibitor, partial curve, poor fit], Cn1nc(C(C)(C)C)cc1C(=O)NNC(=O)c1ccc(C(F)(F)F)cc1 31.6 µM [inhibitor, partial curve, poor fit], COc1ccc(NC(=O)CCc2nnc3n(C)c(=O)c4sccc4n23)cc1Cl 89.1 µM [inhibitor, partial curve, poor fit], CCCCCCSc1nc(O)c(C2OC(=O)c3c2ccc(OC)c3OC)c(=O)n1-c1ccccc1 (configuration not stated) 89.1 µM [inhibitor, partial curve, poor fit], Cc1ccc2cc3cc(C(=O)NCCCN4CCCC4)oc3nc2c1 22.4 µM [inhibitor, partial curve, poor fit], CC[C@H](Cc1c(I)cc(I)c(N)c1I)C(=O)O 25.1 µM [inhibitor, partial curve], NC1=NC(=Nc2ccc(S(=O)(=O)N3CCOCC3)cc2)c2ccccc21 56.2 µM [inhibitor, partial curve, poor fit]
